# Hit rate of the full screen: of about 220,000 compounds, about 2,400 (1.1%) were called active. This list was built around the results that the source calls inconclusive (neither active nor inactive); the mix of calls is not that of the screen. Calls follow the shape of the dose curve; as a rule, active = well fitted inhibition curve with a large enough effect; inconclusive = small, poorly fitted or top-dose-only effect, or effect the other way; inactive = no such curve, though single readings can be large or run the other way. Potencies of inconclusive entries are doubtful fits and often do not repeat.
# Assay: qHTS Multiplex Assay to Identify Dual Action Probes in a Cell Model of Huntington: Aggregate Formation (GFP); also: nearly all actives have a fitted effect of over 60% in size
# Details: PC12 HttQ103-GFP aggregates, Acumen cytometry, 40 h; activity change, negative = inhibition: at 46.1 µM (top of the series) unless noted
# Summary of the method: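 Ecdysone-promoter PC12 model expressing HTT exon 1 Q103 fused to GFP, induced by tebufenozide at 100 nM final. Compounds titrated; aggregates sized 1–25 µm scored on a 488 nm laser cytometer.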
# % is scaled to controls: 0 for no effect and ±100 for the full control effect; potency is read from the fitted curve at half-maximal effect.
SMILES,Potency,"activity change, negative = inhibition"
O=C(Cn1cnc([N+](=O)[O-])n1)N/N=C/c1cc(Cl)ccc1O,active: 11.2 µM,–
O=C(CN1C(=O)c2ccccc2S1(=O)=O)N1CCN(Cc2ccc3c(c2)OCO3)CC1,"inconclusive: 0.631 µM [inhibitor, single point]",–
O=[N+]([O-])c1ccc(N2CCCCC2)cc1N1CCOCC1,inactive,–
COc1ccc(-c2csc(/C(C#N)=C(\O)CSc3nccn3C)n2)cc1OC,"inconclusive: 1.78 µM [activator, partial curve]",–
N=c1n(CC(=O)c2ccc([N+](=O)[O-])cc2)c2ccccc2n1Cc1ccccc1,"inconclusive: 28.2 µM [inhibitor, partial curve]",–
O=C(Nc1cc(C(F)(F)F)ccc1-n1cncn1)c1ccc(Br)cc1,inactive,–
O=C(CN1C(=O)C2CC=CCC2C1=O)Nc1ccc(S(=O)(=O)N2CCOCC2)cc1 (centres undefined),inactive,–
Cc1cc(NCCCn2ccnc2)n2nc(C)c(-c3ccc(Cl)cc3)c2n1,"inconclusive: 3.55 µM [inhibitor, single point]",–
Oc1ccccc1/C=N/Nc1cc(N2CCCC2)nc(N2CCCC2)n1,"inconclusive: 35.5 µM [inhibitor, single point]",–
Cc1ccc2nc(Cl)c3nnnn3c2c1,active: 3.55 µM,–
O=C(Nc1nnc(-c2cccs2)o1)c1ccc(S(=O)(=O)N2CCOCC2)cc1,"inconclusive: 35.5 µM [inhibitor, single point]",–
CCCCn1nnnc1SCC(=O)Nc1sc2c(c1C#N)CCCC2,"inconclusive: 15.8 µM [inhibitor, single point]",–
CCOC(=O)c1c(C(=O)OCC)c(C)n(N2C(=O)CSC2=S)c1C,active: 0.891 µM,–
COc1ccc(S(=O)(=O)NCCC(=O)NC2CCCCCCC2)cc1,"inconclusive: 1.26 µM [activator, single point]",–
CC(=O)Nc1ccc(S(=O)(=O)NC2=NCN(CCOC(=O)c3ccccc3)CN2)cc1,"inconclusive: 2.51 µM [activator, partial curve]",–
COC(=O)CSc1nc2nc(C)cc(C)n2n1,inactive,–
C(=N\Nc1nc(-c2ccccn2)nc2ccccc12)/c1ccccc1,"inconclusive: 3.55 µM [inhibitor, single point]",–
COc1ccccc1NC(=O)c1cc(C)nc2ccccc12,"inconclusive: 3.98 µM [activator, partial curve]",–
CCOC(=O)C1C(C(=O)NN)C1C(=O)Nc1ccccc1 (centres undefined),inactive,–
CO/N=C1\CCCc2c(C(=O)NN)sc(SC)c21,"inconclusive: 3.55 µM [inhibitor, partial curve]",–
C=CCn1c(N)c(C(=O)NCC2CCCO2)c2nc3ccccc3nc21 (centres undefined),inactive,–
Cc1cc(C(=O)COc2ccccc2C(N)=O)c(C)n1CC1CCCO1 (centres undefined),"inconclusive: 12.6 µM [inhibitor, partial curve]",–
CC(C)(C)c1ccc(Cn2ccc(-c3ccc4c(c3)OCO4)n2)cc1,"inconclusive: 22.4 µM [inhibitor, single point]",–
CCCCNC(=S)Nc1ccc([N+](=O)[O-])cc1,"inconclusive: 31.6 µM [inhibitor, single point]",–
O=C(CC(c1ccccc1)c1cc(Br)ccc1O)NCCN1CCOCC1 (centres undefined),inactive,–

# Some of the entries so far, with bars between the fields.
SMILES | Potency | activity change, negative = inhibition
O=C(Nc1cc(C(F)(F)F)ccc1-n1cncn1)c1ccc(Br)cc1 | inactive | –
O=C(CN1C(=O)C2CC=CCC2C1=O)Nc1ccc(S(=O)(=O)N2CCOCC2)cc1 (centres undefined) | inactive | –
Cc1cc(NCCCn2ccnc2)n2nc(C)c(-c3ccc(Cl)cc3)c2n1 | inconclusive: 3.55 µM [inhibitor, single point] | –
Oc1ccccc1/C=N/Nc1cc(N2CCCC2)nc(N2CCCC2)n1 | inconclusive: 35.5 µM [inhibitor, single point] | –

# Full records as entered above.
# `O=C(CN1C(=O)C2CC=CCC2C1=O)Nc1ccc(S(=O)(=O)N2CCOCC2)cc1` (centres undefined) in the list: Potency: inactive
# `O=C(Nc1cc(C(F)(F)F)ccc1-n1cncn1)c1ccc(Br)cc1` in the list: Potency: inactive

# (next part)

SMILES,Potency,"activity change, negative = inhibition"
COc1ccc([N+](=O)[O-])cc1N(CC(=O)NCC1CCCO1)S(C)(=O)=O (centres undefined),inactive,–
O=C(Nc1ccc(Cl)cc1)N1CCCC1,inactive,–
O=C(NC1CCN(C(=O)C2CCCCC2)CC1)c1ccccc1,–,inactive: -0.597% [at 9.22 µM]
COc1ccc(NC(=O)C2CCCN(S(=O)(=O)c3cccc4cccnc34)C2)cc1 (centres undefined),"inconclusive: 3.16 µM [activator, partial curve]",–
CCOC(=O)C1=C(C)N=C2c3ccccc3C(=O)C2C1c1ccc(C)cc1 (centres undefined),"inconclusive: 15.8 µM [inhibitor, single point]",–
COc1ccc(S(=O)(=O)N(CC(=O)N2CCOCC2)Cc2ccccc2)cc1C,"inconclusive: 11.2 µM [activator, partial curve]",–
CCOC(=O)c1cccnc1SCc1cc(=O)n2ccccc2n1,"inconclusive: 31.6 µM [activator, single point]",–
O=C(CN1CCN(c2nc(-c3ccc(F)cc3)cs2)CC1)NCc1ccc2c(c1)OCO2,"inconclusive: 28.2 µM [inhibitor, single point]",–
O=S(=O)(Nc1cc(S(=O)(=O)N2CCOCC2)ccc1N1CCOCC1)c1ccc2c(c1)OCCO2,inactive,–
COc1ccc(NC(=O)c2onc(C)c2Cl)cc1OC,"inconclusive: 0.631 µM [inhibitor, single point]",–
COc1cc(C(=O)N/N=C(\c2ccccc2)c2ccccn2)cc(OC)c1OC,"inconclusive: 3.55 µM [inhibitor, partial curve]",–
COc1ccc2nc(N=Nc3ccc(O)c4ccccc34)sc2c1,"inconclusive: 2.51 µM [inhibitor, full curve]",–
Oc1ccc(/C=N/Nc2cccc3cccnc23)c(O)c1,"inconclusive: 8.91 µM [activator, partial curve]",–
CC(=O)N1c2c(cc(Br)cc2S(=O)(=O)NCc2ccc3c(c2)OCO3)CC1C (centres undefined),inactive,–
COc1ccc(C(=O)NCC(=O)NCC(c2ccco2)N(C)C)cc1OC (centres undefined),"inconclusive: 35.5 µM [activator, single point]",–
CCc1nc(N2CCC3(CC2)OCCO3)c2nnn(Cc3ccccc3Cl)c2n1,"inconclusive: 25.1 µM [inhibitor, single point]",–
Cc1ccc(N=Nc2ccc(O)c3ncccc23)cc1C,"inconclusive: 2.82 µM [inhibitor, full curve]",–
CC(=O)NC1C(=O)N=C(SCC(=O)NCc2ccccc2)NC1=O (centres undefined),inactive,–
C/C(=C\c1ccccc1)C(=O)N1CCN(c2cccc(C(F)(F)F)c2)CC1,inactive,–
O=[N+]([O-])c1cc(Br)cc(/C=N/n2cnnc2)c1O,"inconclusive: 35.5 µM [inhibitor, single point]",–
CN(C)c1ccc(/C=N/NC(=O)C(O)(c2ccccc2)c2ccccc2)o1,"inconclusive: 35.5 µM [inhibitor, single point]",–
O=C(/C=C/c1ccco1)Nc1ccc(C(=O)N2CCOCC2)cc1,inactive,–
Cn1c(=O)c2c(ncn2CCO)n(C)c1=O,inactive,–
Cc1nc([N+](=O)[O-])c(Br)n1CC(=O)c1ccc(F)cc1,active: 28.2 µM,–
Cc1c(NC2=CC(=O)CC(C)(C)C2)ccc([N+](=O)[O-])c1C,"inconclusive: 5.62 µM [activator, single point]",–

SMILES,Potency,"activity change, negative = inhibition"
O=C(c1ccc(-n2cccc2)cc1)N1CCOCC1,inactive,–
O=C(NC1=NCCS1)c1cccc(S(=O)(=O)N2CCc3ccccc32)c1,"inconclusive: 0.794 µM [inhibitor, single point]",–
CCOC(=O)CSc1nnc(CNC(=O)c2ccco2)n1-c1ccc(F)cc1,"inconclusive: 15.8 µM [inhibitor, single point]",–
CCN(CC)c1ccc2c(C)c(CN3CCOCC3)c(=O)oc2c1,"inconclusive: 0.631 µM [inhibitor, partial curve]",–
C/C(=N\NC(=O)COc1ccc(C(C)(C)C)cc1)c1ccc(N2CCOCC2)cc1,inactive,–
CCCCC(=O)NC(=S)Nc1cccc(NC(=O)CC)c1,inactive,–
O=C(O)c1ccc(CS(=O)c2cccc(C(F)(F)F)c2)o1 (centres undefined),active: 12.6 µM,–
COc1ccc(COCC(O)CN2CCOCC2)cc1OC (centres undefined),"inconclusive: 6.31 µM [activator, partial curve]",–
Cc1ccc(-c2cc(C(=O)N3N=C(C(F)F)CC3(O)C(F)F)c3ccccc3n2)cc1C (centres undefined),"inconclusive: 11.2 µM [inhibitor, single point]",–
Cc1ccc(C)c(N=Nc2ccc(O)c3ncccc23)c1,"inconclusive: 7.94 µM [inhibitor, partial curve]",–
COc1ccc(OCc2csc(N)n2)cc1,inactive,–
CCc1ccc2oc(C(=O)NCc3ccncc3)c(C)c2c1,"inconclusive: 35.5 µM [inhibitor, single point]",–
COc1cccc(CN2C(=O)N(C(C)C)C(N(O)C(=O)NC(C)C)C2(C)C)c1OC (centres undefined),"inconclusive: 35.5 µM [activator, single point]",–
CC(C)N(Cc1nc(-c2ccccc2)no1)C(=O)C(Cl)(Cl)Cl,"inconclusive: 31.6 µM [inhibitor, single point]",–
O=C(Nc1ccc(N2CCN(C(=O)c3ccc(Cl)cc3)CC2)cc1)c1ccc([N+](=O)[O-])o1,"inconclusive: 35.5 µM [inhibitor, single point]",–
CCn1ncc(C2=NOC(C(=O)Nc3ccc4c(c3)OCO4)C2)c1C (centres undefined),"inconclusive: 15.8 µM [inhibitor, single point]",–
O=S(=O)(NCCc1csc(-c2cccnc2)n1)c1ccc(Cl)s1,"inconclusive: 14.1 µM [inhibitor, single point]",–
CCc1ccc(N(CC(=O)Nc2nc3ccc(C)cc3s2)S(=O)(=O)c2c(C)noc2C)cc1,"inconclusive: 15.8 µM [inhibitor, single point]",–
O=C(CN1C(=O)C2C3C=CC(C3)C2C1=O)N1CC(=O)N(CCc2ccccc2)C(=O)C1 (centres undefined),inactive,–
O=C(CSc1nnnn1C1CCCCC1)NCc1cccs1,–,inactive: 7.76% [at 9.22 µM]
COc1ccc(-c2cc3ccc(OCc4nn[nH]n4)cc3oc2=O)cc1OC,inactive,–
Cc1c(C)c(C)c(S(=O)(=O)N2CCNCC2)c(C)c1C,inactive,–
CCCCSc1nc(C(=O)O)cc(=O)[nH]1,–,inactive: -7.57% [at 9.22 µM]
CNC(=S)N1N=C(c2ccccc2)CC1c1ccc(Br)cc1 (centres undefined),"inconclusive: 22.4 µM [inhibitor, single point]",–
